The text below walks through data of publication PMC11898282.

By UniProt entry, the sequences of proteins in these tests, tags left out.
UniProt P67809: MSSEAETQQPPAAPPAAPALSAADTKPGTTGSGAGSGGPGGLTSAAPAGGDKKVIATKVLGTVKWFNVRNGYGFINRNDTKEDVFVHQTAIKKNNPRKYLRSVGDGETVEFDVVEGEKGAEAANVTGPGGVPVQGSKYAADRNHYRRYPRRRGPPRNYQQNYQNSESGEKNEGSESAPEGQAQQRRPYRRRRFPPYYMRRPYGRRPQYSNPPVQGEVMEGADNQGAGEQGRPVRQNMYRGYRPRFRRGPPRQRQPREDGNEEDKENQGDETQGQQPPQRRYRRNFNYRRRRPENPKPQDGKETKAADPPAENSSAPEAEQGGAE

No constants are given. Whether binding was seen depends on the method and setting. In cells and extracts the contact can be indirect. Some results given as binding are weak or reduced against the parent protein; the word gives no strength. For some assays here: Sequences can lack the tags named with a protein.

Assay [1] has as its target T1, Flag-tagged TMBIM1 (transmembrane BAX inhibitor motif-containing 1) (human) (UniProt Q969X1).
T1 sequence: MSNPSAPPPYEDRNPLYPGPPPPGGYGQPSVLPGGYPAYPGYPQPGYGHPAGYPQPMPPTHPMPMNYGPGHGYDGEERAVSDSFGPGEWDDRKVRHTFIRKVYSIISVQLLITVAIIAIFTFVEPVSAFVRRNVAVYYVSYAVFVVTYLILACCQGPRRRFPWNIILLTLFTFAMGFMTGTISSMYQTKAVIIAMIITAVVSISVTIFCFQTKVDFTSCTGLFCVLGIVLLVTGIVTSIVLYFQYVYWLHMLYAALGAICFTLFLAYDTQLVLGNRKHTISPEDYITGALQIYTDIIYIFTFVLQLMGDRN
As to the kind of experiment: co-IP; CFPAC-1 cells expressing Flag-TMBIM1; extracts incubated overnight at 4 °C with Protein A/G magnetic beads and anti-Flag antibody; three washes with IP buffer; silver staining and immunoblot for YBX1; vector control. For orientation: A western blot detects proteins with antibodies after separation by electrophoresis.

Assay [2] deals with Y box binding protein 1 (YBX1) (human (endogenous in CFPAC-1, Capan-1 and PANC-1)) (UniProt P67809). Description: co-IP; endogenous proteins in Capan-1 and PANC-1 extracts; Protein A/G magnetic beads with YBX1 antibody or IgG control; three washes with IP buffer; Western blot.

Take “Y box binding protein 1 (YBX1) (from UniProt P67809 1-324)”: the binding result in assay [1] was “binds”.

B1: transmembrane BAX inhibitor motif-containing 1 (TMBIM1), endogenous (protein, UniProt Q969X1 1-311)
chain: MSNPSAPPPYEDRNPLYPGPPPPGGYGQPSVLPGGYPAYPGYPQPGYGHPAGYPQPMPPTHPMPMNYGPGHGYDGEERAVSDSFGPGEWDDRKVRHTFIRKVYSIISVQLLITVAIIAIFTFVEPVSAFVRRNVAVYYVSYAVFVVTYLILACCQGPRRRFPWNIILLTLFTFAMGFMTGTISSMYQTKAVIIAMIITAVVSISVTIFCFQTKVDFTSCTGLFCVLGIVLLVTGIVTSIVLYFQYVYWLHMLYAALGAICFTLFLAYDTQLVLGNRKHTISPEDYITGALQIYTDIIYIFTFVLQLMGDRN
Take B1: the binding result in assay [2] is on record as “binds”.
